The test deals with vesicle transport V-SNARE protein (Vti1a) of the white-backed planthopper (white-backed planthopper (Sogatella furcifera)). Description: two-hybrid; split-ubiquitin Y2H system (Dualsystems Biotech), yeast NMY51; growth on QDO (SD-Ade-His-Leu-Trp) with 20 mM 3-aminotriazole, 30 °C, and β-galactosidase assay.

Results are given in words; binding and its absence hold for the method and conditions named. Binding can be weak; no strength is given.

With “vesicle-associated membrane protein 7 (VAMP7) of the white-backed planthopper (from UniProt A0A7S6G4N4)”, the binding result was “binds”.

These data come from article PMC8435234.
